Assay results reported in article PMC3458930.
Results are given in words; binding and its absence hold for the method and conditions named. In cells and extracts the contact can be indirect. Binding calls can cover weak binding; strength is not graded here.

By UniProt entry, the sequences of proteins in these tests, tags left out. Where a name states a change or a piece, a line headed by the entry shows the natural chain unless it says otherwise.
UniProt P55211: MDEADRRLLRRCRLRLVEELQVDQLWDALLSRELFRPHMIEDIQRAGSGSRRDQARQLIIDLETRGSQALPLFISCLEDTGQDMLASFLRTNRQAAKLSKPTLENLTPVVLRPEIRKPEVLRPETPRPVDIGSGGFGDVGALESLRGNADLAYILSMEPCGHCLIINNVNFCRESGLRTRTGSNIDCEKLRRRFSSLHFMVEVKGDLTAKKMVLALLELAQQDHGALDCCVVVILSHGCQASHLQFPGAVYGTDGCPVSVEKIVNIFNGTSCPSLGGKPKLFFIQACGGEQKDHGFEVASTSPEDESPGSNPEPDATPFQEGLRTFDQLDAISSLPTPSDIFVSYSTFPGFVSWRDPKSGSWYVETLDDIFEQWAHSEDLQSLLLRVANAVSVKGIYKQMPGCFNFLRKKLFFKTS

Biological target: T1, αB-crystallin (human (endogenous in ARPE-19)) (UniProt P02511)
T1 sequence: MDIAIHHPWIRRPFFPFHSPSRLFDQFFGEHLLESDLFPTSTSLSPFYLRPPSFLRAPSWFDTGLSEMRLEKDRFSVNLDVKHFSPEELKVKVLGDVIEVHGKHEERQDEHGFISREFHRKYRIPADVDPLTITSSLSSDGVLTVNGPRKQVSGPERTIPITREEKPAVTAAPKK
Test: co-IP; endogenous proteins in whole extracts of ARPE-19 cells, untreated control (0 h), with a time course of 2 mM MGO where the binding was only reduced or increased; antibody and protein A-agarose, western blot; precipitating antibody of each panel not told

binding: binds
Substance: caspase-9 (from UniProt P55211) (enzyme)
